# According to the supplement of paper PMC8728848:
# Some of the results follow.
# Experiments:
# Assay in all cases: glycan array binding signal (z-score within array); higher = stronger binding
# Conditions in all cases: glycan notation: IUPAC condensed, linker removed
# [1] = molecular target: Gal(a1-3)Gal(b1-4)GlcNAc(b1-2)Man
# In short: (§1)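 Columns mapping to the same glycan were averaged after glycan names were converted to IUPAC-condensed notation. The data come from 3228 arrays in the Consortium for Functional Glycomics database, limited to those with an available protein sequence. Binding is reported as a within-array Z-score averaged across arrays of one protein sequence and across linkers.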
# [2] = molecular target: Gal(a1-3)Gal(b1-4)GlcNAc(b1-2)Man(a1-3)[Gal(a1-3)Gal(b1-4)GlcNAc(b1-2)Man(a1-6)]Man(b1-4)GlcNAc(b1-4)GlcNAc
# In short: as §1
# [3] = molecular target: Gal(a1-3)Gal(b1-4)GlcNAc(b1-3)GalNAc
# In short: as §1
# [4] = molecular target: Gal(a1-3)Gal(b1-4)GlcNAc(b1-6)GalNAc
# In short: as §1
# [5] = molecular target: Gal(a1-3)Gal(b1-4)[Fuc(a1-3)]GlcNAc
# In short: as §1
# [6] = molecular target: Gal(a1-3)Gal(b1-4)[Fuc(a1-3)]GlcNAc(b1-2)Man(a1-3)[Gal(a1-3)Gal(b1-4)[Fuc(a1-3)]GlcNAc(b1-2)Man(a1-6)]Man(b1-4)GlcNAc(b1-4)GlcNAc
# In short: as §1
# [7] = molecular target: Gal(a1-3)GalNAc
# In short: as §1
# [8] = molecular target: Gal(a1-3)[Gal(a1-4)]Gal(b1-4)GlcNAc
# In short: as §1
# [9] = molecular target: Gal(a1-4)Gal(b1-3)GlcNAc(b1-2)Man(a1-3)[Gal(a1-4)Gal(b1-3)GlcNAc(b1-2)Man(a1-6)]Man(b1-4)GlcNAc(b1-4)GlcNAc
# In short: as §1
# [10] = molecular target: Gal(a1-4)Gal(b1-4)Glc
# In short: as §1
# [11] = molecular target: Gal(a1-4)Gal(b1-4)GlcNAc
# In short: as §1
# [12] = molecular target: Gal(a1-4)Gal(b1-4)GlcNAc(b1-2)Man(a1-3)[Gal(a1-4)Gal(b1-4)GlcNAc(b1-2)Man(a1-6)]Man(b1-4)GlcNAc(b1-4)GlcNAc
# In short: as §1
# [13] = molecular target: Gal(a1-4)Gal(b1-4)GlcNAc(b1-3)Gal(b1-4)Glc
# In short: as §1
# [14] = molecular target: Gal(a1-4)GlcNAc
# In short: as §1
# [15] = molecular target: Gal(a1-6)Glc
# In short: as §1
# [16] = molecular target: Gal(b1-2)Gal
# In short: as §1
# [17] = molecular target: Gal(b1-3)Gal
# In short: as §1
# [18] = molecular target: Gal(b1-3)Gal(b1-4)GlcNAc
# In short: as §1
# [19] = molecular target: Gal(b1-3)GalNAc
# In short: as §1
# [20] = molecular target: Gal(b1-3)GalNAc(a1-3)[Fuc(a1-2)]Gal(b1-4)Glc
# In short: as §1
# [21] = molecular target: Gal(b1-3)GalNAc(a1-3)[Fuc(a1-2)]Gal(b1-4)GlcNAc
# In short: as §1
# [22] = molecular target: Gal(b1-3)GalNAc(b1-3)Gal
# In short: as §1
# [23] = molecular target: Gal(b1-3)GalNAc(b1-3)Gal(a1-4)Gal(b1-4)Glc
# In short: as §1
# [24] = molecular target: Gal(b1-3)GalNAc(b1-4)Gal(b1-4)Glc
# In short: as §1
# [25] = molecular target: Gal(b1-3)GalNAc(b1-4)[Neu5Ac(a2-3)]Gal(b1-4)Glc
# In short: as §1
# [26] = molecular target: Gal(b1-3)GlcNAc
# In short: as §1
# [27] = molecular target: Gal(b1-3)GlcNAc(a1-3)Gal(b1-4)GlcNAc
# In short: as §1
# [28] = molecular target: Gal(b1-3)GlcNAc(a1-6)Gal(b1-4)GlcNAc
# In short: as §1
# [29] = molecular target: Gal(b1-3)GlcNAc(b1-2)Man
# In short: as §1
# [30] = molecular target: Gal(b1-3)GlcNAc(b1-2)Man(a1-3)[Gal(b1-3)GlcNAc(b1-2)Man(a1-6)]Man(b1-4)GlcNAc(b1-4)GlcNAc
# In short: as §1
# [31] = molecular target: Gal(b1-3)GlcNAc(b1-2)Man(a1-3)[Gal(b1-3)GlcNAc(b1-2)Man(a1-6)]Man(b1-4)GlcNAc(b1-4)[Fuc(a1-6)]GlcNAc
# In short: as §1
# [32] = molecular target: Gal(b1-3)GlcNAc(b1-2)Man(a1-3)[GlcNAc(b1-4)][Gal(b1-3)GlcNAc(b1-2)Man(a1-6)]Man(b1-4)GlcNAc(b1-4)GlcNAc
# In short: as §1
# [33] = molecular target: Gal(b1-3)GlcNAc(b1-2)[Gal(b1-3)GlcNAc(b1-6)]Man(a1-6)[Gal(b1-3)GlcNAc(b1-2)Man(a1-3)]Man(b1-4)GlcNAc(b1-4)GlcNAc
# In short: as §1
# [34] = molecular target: Gal(b1-3)GlcNAc(b1-3)Gal(b1-3)GlcNAc
# In short: as §1
# [35] = molecular target: Gal(b1-3)GlcNAc(b1-3)Gal(b1-4)Glc
# In short: as §1
# [36] = molecular target: Gal(b1-3)GlcNAc(b1-3)Gal(b1-4)GlcNAc
# In short: as §1
# [37] = molecular target: Gal(b1-3)GlcNAc(b1-3)Gal(b1-4)GlcNAc(b1-2)Man(a1-3)[Gal(b1-3)GlcNAc(b1-3)Gal(b1-4)GlcNAc(b1-2)Man(a1-6)]Man(b1-4)GlcNAc(b1-4)GlcNAc
# In short: as §1
# [38] = molecular target: Gal(b1-3)GlcNAc(b1-3)Gal(b1-4)GlcNAc(b1-2)[Gal(b1-3)GlcNAc(b1-3)Gal(b1-4)GlcNAc(b1-6)]Man(a1-6)[Gal(b1-3)GlcNAc(b1-3)Gal(b1-4)GlcNAc(b1-2)Man(a1-3)]Man(b1-4)GlcNAc(b1-4)[Fuc(a1-6)]GlcNAc
# In short: as §1
# [39] = molecular target: Gal(b1-3)GlcNAc(b1-3)Gal(b1-4)GlcNAc(b1-3)Gal(b1-4)GlcNAc(b1-2)[Gal(b1-3)GlcNAc(b1-3)Gal(b1-4)GlcNAc(b1-3)Gal(b1-4)GlcNAc(b1-6)]Man(a1-6)[Gal(b1-3)GlcNAc(b1-3)Gal(b1-4)GlcNAc(b1-3)Gal(b1-4)GlcNAc(b1-2)Man(a1-3)]Man(b1-4)GlcNAc(b1-4)[Fuc(a1-6)]GlcNAc
# In short: as §1
# [40] = molecular target: Gal(b1-3)GlcNAc(b1-3)Gal(b1-4)GlcNAc(b1-6)[Gal(b1-3)GlcNAc(b1-3)]Gal(b1-4)Glc
# In short: as §1
# [41] = molecular target: Gal(b1-3)GlcNAc(b1-3)Gal(b1-4)[Fuc(a1-3)]GlcNAc
# In short: as §1
# [42] = molecular target: Gal(b1-3)GlcNAc(b1-3)Gal(b1-4)[Fuc(a1-3)]GlcNAc(b1-6)[Gal(b1-3)GlcNAc(b1-3)]Gal(b1-4)Glc
# In short: as §1
# [43] = molecular target: Gal(b1-3)GlcNAc(b1-3)GalNAc
# In short: as §1
# [44] = molecular target: Gal(b1-3)GlcNAc(b1-6)Gal(b1-4)GlcNAc
# In short: as §1
# [45] = molecular target: Gal(b1-3)GlcNAc(b1-6)GalNAc
# In short: as §1
binder,measurement,setting,value
Clone646PsrP (Streptococcus pneumoniae) (protein) MDHHHHHHHHASENLYFQGAPAINASLNIAKSETKVYTGEGVDSVYRVPIYYKLKVTNDGSKLTFTYTVTYVNPKTNDLGNISSMRPGYSIYNSGTSTQTMLTLGSDLGKPSGVKNYITDKNGRQVLSYNTSTMTTQGSGYTWGNGAQMNGFFAKKGYGLTSSWTVPITGTDTSFTFTPYAARTDRIGINYFNGGGKVVESSTTSQSLSQSKSLSVSAS,glycan array binding signal (z-score),[1],0.696
same,glycan array binding signal (z-score),[2],-0.478
same,glycan array binding signal (z-score),[3],-0.146
same,glycan array binding signal (z-score),[4],0.15
same,glycan array binding signal (z-score),[5],-0.546
same,glycan array binding signal (z-score),[6],0.635
same,glycan array binding signal (z-score),[7],-0.423
same,glycan array binding signal (z-score),[8],0.128
same,glycan array binding signal (z-score),[9],0.416
same,glycan array binding signal (z-score),[10],2.13
same,glycan array binding signal (z-score),[11],1.08
same,glycan array binding signal (z-score),[12],-0.434
same,glycan array binding signal (z-score),[13],-0.163
same,glycan array binding signal (z-score),[14],1.16
same,glycan array binding signal (z-score),[15],0.015
same,glycan array binding signal (z-score),[16],2.94
same,glycan array binding signal (z-score),[17],-0.642
same,glycan array binding signal (z-score),[18],-0.064
same,glycan array binding signal (z-score),[19],-0.426
same,glycan array binding signal (z-score),[20],-0.437
same,glycan array binding signal (z-score),[21],-0.31
same,glycan array binding signal (z-score),[22],0.765
same,glycan array binding signal (z-score),[23],0.86
same,glycan array binding signal (z-score),[24],1.3
same,glycan array binding signal (z-score),[25],0.573
same,glycan array binding signal (z-score),[26],0.245
same,glycan array binding signal (z-score),[27],-0.863
same,glycan array binding signal (z-score),[28],0.248
same,glycan array binding signal (z-score),[29],0.106
same,glycan array binding signal (z-score),[30],-0.535
same,glycan array binding signal (z-score),[31],-0.421
same,glycan array binding signal (z-score),[32],1.06
same,glycan array binding signal (z-score),[33],9.03
same,glycan array binding signal (z-score),[34],-0.113
same,glycan array binding signal (z-score),[35],-0.565
same,glycan array binding signal (z-score),[36],-0.659
same,glycan array binding signal (z-score),[37],-0.547
same,glycan array binding signal (z-score),[38],-0.74
same,glycan array binding signal (z-score),[39],-0.193
same,glycan array binding signal (z-score),[40],-0.795
same,glycan array binding signal (z-score),[41],-0.276
same,glycan array binding signal (z-score),[42],-0.749
same,glycan array binding signal (z-score),[43],-0.43
same,glycan array binding signal (z-score),[44],-0.402
same,glycan array binding signal (z-score),[45],-1.06

# As a short view, part of the list above.
binder,measurement,setting,value
Clone646PsrP (Streptococcus pneumoniae) (protein) MDHHHHHHHHASENLYFQGAPAINASLNIAKSETKVYTGEGVDSVYRVPIYYKLKVTNDGSKLTFTYTVTYVNPKTNDLGNISSMRPGYSIYNSGTSTQTMLTLGSDLGKPSGVKNYITDKNGRQVLSYNTSTMTTQGSGYTWGNGAQMNGFFAKKGYGLTSSWTVPITGTDTSFTFTPYAARTDRIGINYFNGGGKVVESSTTSQSLSQSKSLSVSAS,glycan array binding signal (z-score),[18],-0.064
same,glycan array binding signal (z-score),[19],-0.426
same,glycan array binding signal (z-score),[20],-0.437
same,glycan array binding signal (z-score),[21],-0.31
same,glycan array binding signal (z-score),[22],0.765
same,glycan array binding signal (z-score),[23],0.86
same,glycan array binding signal (z-score),[24],1.3
same,glycan array binding signal (z-score),[25],0.573
same,glycan array binding signal (z-score),[26],0.245
same,glycan array binding signal (z-score),[27],-0.863
same,glycan array binding signal (z-score),[28],0.248
same,glycan array binding signal (z-score),[29],0.106
same,glycan array binding signal (z-score),[30],-0.535
